Data published in the supplement of paper PMC10060354, “Discovery of a small molecule ligand of FRS2 that inhibits invasion and tumor growth” (Cellular Oncology, 2022).

The chains behind the UniProt entries cited, without tags or fusion partners. Where a name states a change or a piece, a line headed by the entry shows the natural chain unless it says otherwise.
UniProt P35610: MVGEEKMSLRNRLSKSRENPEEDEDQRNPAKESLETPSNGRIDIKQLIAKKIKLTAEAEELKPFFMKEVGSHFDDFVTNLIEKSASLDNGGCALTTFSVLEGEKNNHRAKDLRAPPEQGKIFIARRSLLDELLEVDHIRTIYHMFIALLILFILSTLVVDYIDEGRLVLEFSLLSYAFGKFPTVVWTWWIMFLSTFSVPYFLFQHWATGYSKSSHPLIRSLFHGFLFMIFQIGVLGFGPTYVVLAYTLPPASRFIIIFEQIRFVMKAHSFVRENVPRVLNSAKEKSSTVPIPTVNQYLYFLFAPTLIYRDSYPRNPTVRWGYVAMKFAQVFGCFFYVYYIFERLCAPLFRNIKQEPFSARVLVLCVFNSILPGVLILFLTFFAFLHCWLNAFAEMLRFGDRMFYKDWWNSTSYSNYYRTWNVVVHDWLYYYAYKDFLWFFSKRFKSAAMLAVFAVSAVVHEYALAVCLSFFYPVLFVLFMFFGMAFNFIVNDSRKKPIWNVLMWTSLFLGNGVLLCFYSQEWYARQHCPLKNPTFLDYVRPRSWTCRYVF
UniProt Q96RT1: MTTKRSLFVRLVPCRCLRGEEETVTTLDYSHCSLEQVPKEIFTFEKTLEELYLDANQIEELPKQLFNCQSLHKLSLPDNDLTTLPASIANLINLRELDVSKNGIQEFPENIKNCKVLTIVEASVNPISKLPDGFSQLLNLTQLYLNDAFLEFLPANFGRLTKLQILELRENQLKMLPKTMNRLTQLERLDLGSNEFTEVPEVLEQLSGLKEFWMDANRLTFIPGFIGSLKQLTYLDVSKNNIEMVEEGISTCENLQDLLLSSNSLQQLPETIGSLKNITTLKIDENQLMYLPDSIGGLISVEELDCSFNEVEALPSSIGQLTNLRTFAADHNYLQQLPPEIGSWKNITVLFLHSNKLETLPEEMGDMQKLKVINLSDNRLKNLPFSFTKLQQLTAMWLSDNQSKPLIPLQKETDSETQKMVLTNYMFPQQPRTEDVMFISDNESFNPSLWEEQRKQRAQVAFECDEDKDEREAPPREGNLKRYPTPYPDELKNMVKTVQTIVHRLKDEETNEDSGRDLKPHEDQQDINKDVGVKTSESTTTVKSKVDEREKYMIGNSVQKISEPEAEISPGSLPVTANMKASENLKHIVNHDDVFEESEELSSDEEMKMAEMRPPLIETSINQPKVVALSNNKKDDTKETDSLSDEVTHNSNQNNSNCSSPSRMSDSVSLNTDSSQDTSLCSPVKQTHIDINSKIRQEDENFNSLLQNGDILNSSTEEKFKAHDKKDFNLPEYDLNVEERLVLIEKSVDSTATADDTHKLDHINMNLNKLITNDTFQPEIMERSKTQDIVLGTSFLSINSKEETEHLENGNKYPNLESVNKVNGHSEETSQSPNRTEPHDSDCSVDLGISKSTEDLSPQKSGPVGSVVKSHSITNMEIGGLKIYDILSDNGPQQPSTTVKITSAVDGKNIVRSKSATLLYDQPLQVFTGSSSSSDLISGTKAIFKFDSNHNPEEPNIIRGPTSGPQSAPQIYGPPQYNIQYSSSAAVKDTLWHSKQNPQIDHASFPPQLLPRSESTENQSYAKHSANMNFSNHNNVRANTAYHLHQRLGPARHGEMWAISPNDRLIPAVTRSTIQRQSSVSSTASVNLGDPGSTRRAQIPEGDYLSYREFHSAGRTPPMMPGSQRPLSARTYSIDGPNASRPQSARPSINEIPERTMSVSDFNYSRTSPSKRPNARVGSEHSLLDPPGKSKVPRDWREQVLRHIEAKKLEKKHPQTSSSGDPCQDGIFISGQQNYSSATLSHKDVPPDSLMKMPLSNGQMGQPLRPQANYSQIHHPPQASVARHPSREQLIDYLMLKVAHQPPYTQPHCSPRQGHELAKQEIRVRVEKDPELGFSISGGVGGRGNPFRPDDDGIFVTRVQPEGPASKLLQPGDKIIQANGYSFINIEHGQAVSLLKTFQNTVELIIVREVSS
UniProt O60732: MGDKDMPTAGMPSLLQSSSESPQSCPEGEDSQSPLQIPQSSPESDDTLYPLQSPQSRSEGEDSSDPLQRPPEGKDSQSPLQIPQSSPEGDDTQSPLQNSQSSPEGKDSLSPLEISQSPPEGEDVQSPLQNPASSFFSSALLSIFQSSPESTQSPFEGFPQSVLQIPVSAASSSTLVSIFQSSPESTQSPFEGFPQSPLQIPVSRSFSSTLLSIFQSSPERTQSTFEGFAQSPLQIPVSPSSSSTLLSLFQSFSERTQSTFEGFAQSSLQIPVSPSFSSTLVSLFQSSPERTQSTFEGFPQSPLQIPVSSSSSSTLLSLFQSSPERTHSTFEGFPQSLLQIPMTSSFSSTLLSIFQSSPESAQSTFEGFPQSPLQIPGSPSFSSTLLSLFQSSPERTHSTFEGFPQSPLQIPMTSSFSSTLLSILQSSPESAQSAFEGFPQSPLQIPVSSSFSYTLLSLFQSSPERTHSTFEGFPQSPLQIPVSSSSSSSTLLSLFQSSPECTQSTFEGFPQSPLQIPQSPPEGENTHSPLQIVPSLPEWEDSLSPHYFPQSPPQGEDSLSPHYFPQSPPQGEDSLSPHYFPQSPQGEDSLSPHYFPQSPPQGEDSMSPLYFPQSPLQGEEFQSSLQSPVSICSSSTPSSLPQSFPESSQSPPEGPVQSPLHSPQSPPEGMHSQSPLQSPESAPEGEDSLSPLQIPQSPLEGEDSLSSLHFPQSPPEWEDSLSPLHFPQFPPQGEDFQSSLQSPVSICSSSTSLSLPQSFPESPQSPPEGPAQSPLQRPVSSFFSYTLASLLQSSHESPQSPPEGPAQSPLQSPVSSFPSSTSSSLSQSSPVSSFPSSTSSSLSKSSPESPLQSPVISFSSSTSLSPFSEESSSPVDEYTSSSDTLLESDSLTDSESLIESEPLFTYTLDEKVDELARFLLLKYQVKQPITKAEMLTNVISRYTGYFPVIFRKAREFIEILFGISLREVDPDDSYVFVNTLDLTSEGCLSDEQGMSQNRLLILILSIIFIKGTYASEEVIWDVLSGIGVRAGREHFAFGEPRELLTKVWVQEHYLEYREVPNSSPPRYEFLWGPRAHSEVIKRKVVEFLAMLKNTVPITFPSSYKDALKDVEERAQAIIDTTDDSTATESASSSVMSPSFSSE
UniProt Q9BUP3: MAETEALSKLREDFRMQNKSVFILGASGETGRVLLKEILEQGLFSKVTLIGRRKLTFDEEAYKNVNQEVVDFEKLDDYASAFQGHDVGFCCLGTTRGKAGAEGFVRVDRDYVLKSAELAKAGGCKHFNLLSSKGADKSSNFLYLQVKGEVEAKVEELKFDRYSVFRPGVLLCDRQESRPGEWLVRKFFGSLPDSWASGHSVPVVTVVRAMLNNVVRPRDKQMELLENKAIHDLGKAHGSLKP
UniProt P12074, whole entry: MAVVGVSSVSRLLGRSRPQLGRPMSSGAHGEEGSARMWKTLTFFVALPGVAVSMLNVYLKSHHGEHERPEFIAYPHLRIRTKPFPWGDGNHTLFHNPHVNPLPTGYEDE
UniProt Q8WVN8: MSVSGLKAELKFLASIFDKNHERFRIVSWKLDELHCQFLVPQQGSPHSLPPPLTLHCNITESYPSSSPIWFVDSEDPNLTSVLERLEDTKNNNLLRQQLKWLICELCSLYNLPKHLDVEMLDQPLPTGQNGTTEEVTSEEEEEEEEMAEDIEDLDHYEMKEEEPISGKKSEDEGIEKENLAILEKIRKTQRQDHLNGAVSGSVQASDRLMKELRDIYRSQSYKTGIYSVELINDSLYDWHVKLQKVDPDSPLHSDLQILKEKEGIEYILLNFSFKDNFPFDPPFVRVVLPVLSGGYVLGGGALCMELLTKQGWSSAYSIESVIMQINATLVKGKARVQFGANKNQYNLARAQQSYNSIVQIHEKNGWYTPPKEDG
UniProt Q8N122, whole entry: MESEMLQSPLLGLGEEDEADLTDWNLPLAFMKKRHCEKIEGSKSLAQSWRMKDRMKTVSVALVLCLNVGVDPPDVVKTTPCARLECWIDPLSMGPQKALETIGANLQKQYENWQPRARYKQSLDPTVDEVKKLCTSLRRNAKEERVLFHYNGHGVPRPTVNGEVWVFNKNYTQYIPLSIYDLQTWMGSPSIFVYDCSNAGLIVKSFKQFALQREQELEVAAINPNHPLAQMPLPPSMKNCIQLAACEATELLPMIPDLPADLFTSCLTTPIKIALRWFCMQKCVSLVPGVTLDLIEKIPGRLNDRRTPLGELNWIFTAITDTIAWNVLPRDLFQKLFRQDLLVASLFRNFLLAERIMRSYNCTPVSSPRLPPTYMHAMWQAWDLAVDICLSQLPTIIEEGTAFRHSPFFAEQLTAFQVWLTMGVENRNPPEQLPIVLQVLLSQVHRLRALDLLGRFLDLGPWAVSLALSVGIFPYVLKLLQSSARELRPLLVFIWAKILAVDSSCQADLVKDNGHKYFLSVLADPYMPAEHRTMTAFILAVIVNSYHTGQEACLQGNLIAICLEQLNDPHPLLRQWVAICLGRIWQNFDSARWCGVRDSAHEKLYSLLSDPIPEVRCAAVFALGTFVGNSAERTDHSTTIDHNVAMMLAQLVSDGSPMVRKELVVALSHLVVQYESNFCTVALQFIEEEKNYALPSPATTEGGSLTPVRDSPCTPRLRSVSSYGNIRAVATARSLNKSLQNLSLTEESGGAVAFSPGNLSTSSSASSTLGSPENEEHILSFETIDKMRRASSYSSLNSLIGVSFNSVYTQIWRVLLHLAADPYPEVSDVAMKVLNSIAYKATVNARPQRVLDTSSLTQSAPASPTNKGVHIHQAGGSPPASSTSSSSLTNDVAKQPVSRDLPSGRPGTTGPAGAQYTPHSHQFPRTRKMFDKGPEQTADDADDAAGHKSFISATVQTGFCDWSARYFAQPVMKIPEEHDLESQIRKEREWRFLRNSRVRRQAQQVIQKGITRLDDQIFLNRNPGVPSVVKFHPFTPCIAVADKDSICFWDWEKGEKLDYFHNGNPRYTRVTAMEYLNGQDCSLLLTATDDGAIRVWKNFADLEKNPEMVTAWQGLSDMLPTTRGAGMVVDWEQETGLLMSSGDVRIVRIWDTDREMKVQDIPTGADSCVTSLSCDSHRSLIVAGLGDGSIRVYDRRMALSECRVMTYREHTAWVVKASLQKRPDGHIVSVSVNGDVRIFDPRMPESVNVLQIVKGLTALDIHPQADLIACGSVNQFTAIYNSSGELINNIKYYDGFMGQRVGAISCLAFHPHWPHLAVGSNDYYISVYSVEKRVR
UniProt Q9NPI6: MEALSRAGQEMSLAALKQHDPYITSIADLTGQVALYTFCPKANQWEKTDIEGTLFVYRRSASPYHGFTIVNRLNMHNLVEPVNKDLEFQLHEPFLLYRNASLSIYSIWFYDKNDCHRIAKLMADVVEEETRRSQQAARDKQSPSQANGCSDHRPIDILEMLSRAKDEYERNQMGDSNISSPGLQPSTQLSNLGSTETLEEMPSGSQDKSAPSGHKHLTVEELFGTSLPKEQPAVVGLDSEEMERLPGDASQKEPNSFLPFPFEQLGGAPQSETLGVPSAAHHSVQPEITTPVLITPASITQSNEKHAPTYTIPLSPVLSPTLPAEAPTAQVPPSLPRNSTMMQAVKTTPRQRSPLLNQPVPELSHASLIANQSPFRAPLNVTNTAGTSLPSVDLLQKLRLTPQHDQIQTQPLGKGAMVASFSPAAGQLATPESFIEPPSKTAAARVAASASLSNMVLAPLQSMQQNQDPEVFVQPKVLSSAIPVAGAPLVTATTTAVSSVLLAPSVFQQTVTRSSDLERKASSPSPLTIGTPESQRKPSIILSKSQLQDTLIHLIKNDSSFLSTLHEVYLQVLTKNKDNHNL
UniProt Q9H446: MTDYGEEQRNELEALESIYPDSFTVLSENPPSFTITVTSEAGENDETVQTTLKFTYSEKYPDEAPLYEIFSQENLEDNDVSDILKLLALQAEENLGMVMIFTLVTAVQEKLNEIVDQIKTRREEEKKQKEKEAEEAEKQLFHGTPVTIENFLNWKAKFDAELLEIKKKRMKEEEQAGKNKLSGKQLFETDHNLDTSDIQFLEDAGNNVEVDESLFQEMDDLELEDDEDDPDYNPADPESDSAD
UniProt Q9NY61: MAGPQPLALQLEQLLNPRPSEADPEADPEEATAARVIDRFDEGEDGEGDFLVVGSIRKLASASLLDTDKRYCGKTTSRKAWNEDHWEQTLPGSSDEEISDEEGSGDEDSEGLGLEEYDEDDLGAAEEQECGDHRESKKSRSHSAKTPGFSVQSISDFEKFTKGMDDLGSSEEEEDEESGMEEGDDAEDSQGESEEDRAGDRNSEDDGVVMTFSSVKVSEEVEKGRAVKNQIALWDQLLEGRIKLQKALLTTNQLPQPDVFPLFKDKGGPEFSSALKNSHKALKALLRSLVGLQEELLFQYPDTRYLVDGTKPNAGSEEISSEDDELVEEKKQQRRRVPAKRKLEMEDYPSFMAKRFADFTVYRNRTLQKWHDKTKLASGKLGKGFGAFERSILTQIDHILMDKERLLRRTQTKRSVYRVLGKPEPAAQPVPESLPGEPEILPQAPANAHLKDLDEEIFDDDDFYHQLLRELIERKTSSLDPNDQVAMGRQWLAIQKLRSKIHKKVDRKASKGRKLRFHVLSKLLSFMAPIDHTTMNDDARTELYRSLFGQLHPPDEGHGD

Compound: [O-][N+](C(C1=C(C(O)=C2)NC(C(C=C3)=CC=C3Cl)C4C1C=CC4)=C2Cl)=O
Test: melting temperature shift (compound 7 minus DMSO); higher = compound stabilises the protein
Settings: 10 µM
Protocol: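 Thermal proteome profiling (TMT mass spectrometry) in intact DAOY medulloblastoma cells or DAOY lysates treated with 10 µM compound 7 or DMSO, heated at 10 temperatures from 40.5 to 73.8 °C for 3 min. Melting curves were fitted with the Bioconductor TPP package, and the melting point difference between compound and vehicle is reported per protein (single curve per condition).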

[1] = system: DAOY cell lysate, treatment time: 20 min, 4 °C
[2] = system: intact DAOY cells, treatment time: 90 min, 37 °C

Row | Target | melting temperature shift [1] | melting temperature shift [2]
1 | MET (UniProt P08581) | 0.661 °C | -1.42 °C
2 | SOAT1 (UniProt P35610) | 1.03 °C | 0.218 °C
3 | PKM (UniProt P14618) | -0.181 °C | -0.542 °C
4 | PTGR2 (UniProt Q8N8N7) | -1.46 °C | –
5 | RAB8A (UniProt P61006) | 2.55 °C | -0.445 °C
6 | SNUPN (UniProt O95149) | 1.92 °C | 0.322 °C
7 | TUT1 (UniProt Q9H6E5) | 1 °C | -3.95 °C
8 | UniProt P55061 | 2.03 °C | -2.1 °C
9 | FAM134A (UniProt Q8NC44) | 1.43 °C | –
10 | MED23 (UniProt Q9ULK4) | 0.507 °C | 0.387 °C
11 | UniProt P49674 | 0.212 °C | –
12 | UniProt P49448 | – | -0.578 °C
13 | AUP1 (UniProt Q9Y679) | 1.47 °C | -1.29 °C
14 | CASC4 (UniProt Q6P4E1) | 0.406 °C | –
15 | ERBB2IP (UniProt Q96RT1) | 1.24 °C | -0.494 °C
16 | UniProt Q13595 | 2.14 °C | 0.763 °C
17 | UniProt P05408 | – | 0.28 °C
18 | PDDC1 (UniProt Q8NB37) | -0.638 °C | -1.66 °C
19 | SMYD2 (UniProt Q9NRG4) | -0.354 °C | –
20 | UniProt Q15125 | 3.29 °C | –
21 | DPY19L1 (UniProt Q2PZI1) | -1.07 °C | -3.24 °C
22 | UniProt O60732 | -0.939 °C | -0.486 °C
23 | HTATIP2 (UniProt Q9BUP3) | 1.15 °C | 0.0263 °C
24 | UniProt P12074 | 1.45 °C | –

Row | Target | melting temperature shift [1] | melting temperature shift [2]
25 | GUSB (UniProt P08236) | 0.182 °C | –
26 | ELP5 (UniProt Q8TE02) | – | 0.411 °C
27 | UniProt Q96DC8 | – | 1.33 °C
28 | UniProt P02452 | 1.33 °C | 0.0277 °C
29 | GLS (UniProt O94925) | 0.132 °C | -1.59 °C
30 | UniProt Q8WVN8 | – | 0.307 °C
31 | UniProt Q9NRJ5 | – | -1.28 °C
32 | RPTOR (UniProt Q8N122) | -1.2 °C | –
33 | PREX1 (UniProt Q8TCU6) | – | -0.531 °C
34 | GLRX2 (UniProt Q9NS18) | -1.77 °C | –
35 | MRPL39 (UniProt Q9NYK5) | 0.527 °C | 0.0898 °C
36 | NDUFB11 (UniProt Q9NX14) | 2.19 °C | –
37 | DCP1A (UniProt Q9NPI6) | -1.43 °C | 1.55 °C
38 | MPRIP (UniProt Q6WCQ1) | -0.176 °C | 0.393 °C
39 | RWDD1 (UniProt Q9H446) | 0.83 °C | 0.704 °C
40 | HMGB3 (UniProt O15347) | -1.75 °C | –
41 | MRPS10 (UniProt P82664) | -0.151 °C | -1.19 °C
42 | CCND1 (UniProt P24385) | – | -1.09 °C
43 | UniProt A6NMY6 | – | 0.315 °C
44 | RPS15 (UniProt P62841) | -0.132 °C | -0.863 °C
45 | UniProt Q96NB2 | 0.841 °C | –
46 | UniProt Q9NY61 | 0.647 °C | –
47 | ZKSCAN1 (UniProt P17029) | 1.15 °C | -1.24 °C

Numbers 45 through 47 from above:
Row | Target | melting temperature shift [1] | melting temperature shift [2]
45 | UniProt Q96NB2 | 0.841 °C | –
46 | UniProt Q9NY61 | 0.647 °C | –
47 | ZKSCAN1 (UniProt P17029) | 1.15 °C | -1.24 °C

Many values rest on one well or one pass, so single values are uncertain.
